# The whole screen tested about 400,000 compounds, of which about 5,500 (1.4%) were called active. The shares of active, inactive and inconclusive entries below differ from those in the screen. The call rests on the fitted dose curve; in most records, active means well fitted cell-killing curve with a large enough effect; inconclusive means small, poorly fitted or top-dose-only effect, or effect the other way; inactive means flat fitted curve, though single readings scatter. Where the call is inconclusive, the potency comes from a doubtful curve fit.
# Experiment: qHTS assay for MDR1-selective chemotherapeutics: Primary screen using the parental adenocarcinoma cell KB-3-1; further: nearly all actives have a fitted effect of over 60% in size
# Conditions: KB-3-1 viability, CellTiter-Glo ATP luminescence, 72 h; activity change, negative = cytotoxic: at 46.1 µM (top of the series)
# Outline: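 72 h, 37 °C compound treatment of KB-3-1 parental cells; CellTiter-Glo added, 10 min, luminescence read. Data corrected against DMSO-only plates and normalized before curve fitting.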
# On the % scale 0 is the no-effect control and ±100 the full control effect; potency means the concentration at half of the fitted maximal effect.
SMILES,Potency,"activity change, negative = cytotoxic"
CC1CCCC(C)N1C(=O)c1cccc2c1-c1ccccc1/C2=N/O (centres undefined),inactive,–
CCCCC[C@H]1CN(Cc2ccccc2)C(=O)[C@@H]1CC(=O)NCc1ccccc1,"inconclusive: 32.6 µM [cytotoxic, single point]",–
COc1cc(/C=C2\C(=O)ON=C2c2ccccc2)cc(Br)c1O,"inconclusive: 20.6 µM [cytotoxic, single point]",–
CC(=O)Nc1ccc(SC[C@H](Cc2ccccc2)N2CC[C@@H](N)CCC2=O)cc1,inactive,–
CC(C)Cn1c(-c2cccs2)nc2ccccc21,"inconclusive: 29.1 µM [cytotoxic, single point]",–
Cc1ccc(S(=O)(=O)N(C)/C(=N/S(=O)(=O)c2ccccc2)c2ccccc2)cc1,"inconclusive: 29.1 µM [cytotoxic, single point]",–
Cc1ccc2nc(-c3ccccn3)[nH]c2c1,"inconclusive: 16.4 µM [cytotoxic, single point]",–
O=C(NCc1cccs1)C1CCCN1S(=O)(=O)c1ccccc1F (centres undefined),inactive,–
O=C1NC(c2ccc3c(c2)OCO3)Nc2ccccc21 (centres undefined),"inconclusive: 29.1 µM [cytotoxic, single point]",–
CCOc1ccc(C(=O)COC(=O)c2c(-c3ccccc3)noc2C)cc1,"inconclusive: 20.6 µM [cytotoxic, single point]",–
CSc1ccc(CN2CCCC(N3CCN(c4ccccc4)CC3)C2)cc1 (centres undefined),"inconclusive: 29.1 µM [cytotoxic, single point]",–
CCOc1ccccc1NS(=O)(=O)c1ccc2[nH]c3c(c2c1)CCCCC3,"inconclusive: 20.6 µM [cytotoxic, single point]",–
CCOc1ccc(CCNC(=O)c2cc3c(=O)n(C)c4ccccc4c3n2C)cc1OCC,–,inconclusive: 0.762%
CCOc1cc(-c2c(C#N)c(N)nc3c2CCCC3C)ccc1O (centres undefined),"inconclusive: 29.1 µM [cytotoxic, single point]",–
c1ccc(NC2=NCCN2CCC2CCCCC2)cc1,inactive,–
COc1cccc(-c2cnc3c(NC=O)cc(-c4ccccc4)cn23)c1,active: 5.17 µM,–
CCCCN(C=O)c1c(CC)nc2c(OCC(=O)C(C)(C)C)cccn12,inactive,–
Cc1ccc(NC(=O)Nc2ccc3nc(N4CCN(C)CC4)cc(C)c3c2)cc1F,"inconclusive: 29.1 µM [cytotoxic, single point]",–
O=C(O)c1cccc(Cn2c(Cl)c(/C=N/NC(=O)c3ccc(O)cc3)sc2=O)c1,inactive,–
N#C/C(=C\c1cccc(F)c1)c1nc(-c2cc3c(ccc4ccccc43)oc2=O)cs1,inactive,–
CCn1c(=O)cc(C(=O)OC)sc1=Nc1ccc(F)c(F)c1,"inconclusive: 18.4 µM [cytotoxic, single point]",–
CC(C)(C)S(=O)N1Cc2cc(C(=O)NCc3ccc(Oc4ccccc4)cc3)nc(-c3cccc(-c4cc5ccccc5o4)c3)c2[C@@H]1CCO (some centres undefined),"inconclusive: 29.1 µM [cytotoxic, single point]",–
C[C@]12CCC[C@H](O1)c1c(cc3c(c1O)C(=O)c1c(O)cc(O)cc1C3=O)O2,"inconclusive: 18.4 µM [cytotoxic, single point]",–
CNc1nc(C23CC4CC(CC(C4)C2)C3)cs1,"inconclusive: 29.1 µM [cytotoxic, single point]",–
COc1cc2[nH]c3c(=O)n4c(nc3c2cc1OC)SCCC4,"inconclusive: 32.6 µM [cytotoxic, single point]",–

# Three compounds picked at random from the list so far, as already listed:
SMILES,Potency,"activity change, negative = cytotoxic"
CCCCN(C=O)c1c(CC)nc2c(OCC(=O)C(C)(C)C)cccn12,inactive,–
Cc1ccc(S(=O)(=O)N(C)/C(=N/S(=O)(=O)c2ccccc2)c2ccccc2)cc1,"inconclusive: 29.1 µM [cytotoxic, single point]",–
Cc1ccc2nc(-c3ccccn3)[nH]c2c1,"inconclusive: 16.4 µM [cytotoxic, single point]",–

# Further compounds:

SMILES,Potency,"activity change, negative = cytotoxic"
CCOC(=O)N1CCC(N(CCOC)C(=O)Nc2ccc(CC)cc2)CC1,inactive,–
Cc1ccccc1N1CCN(S(=O)(=O)c2ccccc2)CC1,"inconclusive: 32.6 µM [cytotoxic, single point]",–
O=C(/C=C/c1ccccc1)Nc1ccc(S(=O)(=O)N2CCOCC2)cc1,inactive,–
COc1cc(-c2cnc3c(NC=O)cc(-c4cccnc4)cn23)cc(OC)c1OC,active: 10.3 µM,–
COc1ccc(C(=O)c2ccc3oc(-c4ccc(OC)cc4)c(-c4ccc(O)cc4)c3c2)cc1,active: 18.4 µM,–
CN(C(=O)CSc1cc(C(=O)c2nccn2C)c2ccccc2n1)c1ccccc1,"inconclusive: 23.1 µM [cytotoxic, single point]",–
COc1ccc(C2CC(c3ccc(Br)cc3)=NN2C(=S)Nc2ccccc2)cc1 (centres undefined),"inconclusive: 1.03 µM [cytotoxic, full curve]",–
Cc1ccc(C(=O)NC(=S)NNS(=O)(=O)c2ccccc2)cc1,inactive,–
COc1ccc(F)cc1CN1CCN(c2ncnc3scc(-c4ccccc4)c23)CC1,"inconclusive: 25.9 µM [cytotoxic, single point]",–
CN(CC(=O)NC1CCN(Cc2ccccc2)CC1)S(=O)(=O)c1ccc(Br)s1,active: 23.1 µM,–
Cc1cc2nc(C3CCCCC3)c(Cc3cccc(Cl)c3)n2c(C)c1Br,inactive,–
O=Cc1c(Sc2ccccc2)nc2ccccn2c1=O,active: 14.6 µM,–
Cc1ccc2c(Cl)c(Cc3ccccc3)c(=S)[nH]c2n1,"inconclusive: 29.1 µM [cytotoxic, single point]",–
COc1ccc(C(=O)OCC(=O)NCCN2C(=O)CSC2=O)cc1,inactive,–
COc1cccc(OCCSc2nc3ccccc3c(=O)[nH]2)c1,inactive,–
Cc1cc(-c2nc3ccccc3s2)ccc1N,"inconclusive: 16.4 µM [cytotoxic, single point]",–
COC(=O)/C=C1\N/C(=N/c2nc(C)c3cc(OC)ccc3n2)NC1=O,"inconclusive: 23.1 µM [cytotoxic, single point]",–
CCOC(=O)C(Cc1ccccc1)NC(=O)CCc1c(C)nc2nc(C)nn2c1C (centres undefined),inactive,–
COc1cccc(-n2c(-c3ccccc3F)nc3c(cnn3-c3ccc(C)cc3)c2=O)c1,active: 16.4 µM,–
COc1cc2c(cc1NC(=O)c1ccccc1-c1ccccc1C(=O)O)-c1ccccc1C2,inactive,–
CCOc1ccc(S(=O)(=O)N2CCN(C(=O)c3ccco3)CC2)cc1,inactive,–
COc1ccc(C(=O)CC(Sc2ccccc2N)c2ccc(OC)cc2)cc1 (centres undefined),active: 23.1 µM,–
O=C(C1CCN(CCc2ccccc2)CC1)N1CCOCC1,inactive,–
CCOC(=O)c1sc2nccc(N(C)C)c2c1N=CNOC,"inconclusive: 20.6 µM [rising, partial curve, poor fit]",–
Cc1cc(C)c(NC(=O)c2cn3c4c(c(N5CCN(C)CC5)c(F)cc4c2=O)OCC3C)c(C)c1 (centres undefined),"inconclusive: 20.6 µM [cytotoxic, single point]",–

SMILES,Potency,"activity change, negative = cytotoxic"
Cc1ccc(N(C)S(=O)(=O)c2cccc(C(=O)Nc3ccc(N4CCOCC4)cc3)c2)cc1,"inconclusive: 25.9 µM [cytotoxic, partial curve, poor fit]",–
O=C(Nc1ccc(F)cc1)c1ccc(NC(=O)C2CCCO2)cc1 (centres undefined),inactive,–
CCCCCNc1nc(N2CCCC2)c2c(c1C#N)CCN(C)C2,"inconclusive: 20.6 µM [cytotoxic, single point]",–
O=C(Nc1ccc(Cl)c(C(F)(F)F)c1)Nc1nnc(-c2ccncc2)s1,"inconclusive: 13 µM [cytotoxic, single point]",–
Cc1ccc(Cl)cc1N1CCN(C(=O)Cn2c(-c3cccs3)cc3cc(F)ccc32)CC1,inactive,–
O=C(CSc1cccc2cccnc12)OCC(=O)c1ccc(Br)cc1,inactive,–
Cc1nnc(SCCn2c(N(C)Cc3ccccc3)nc3c2c(=O)n(C)c(=O)n3C)s1,inactive,–
COc1ccc2cc(C(C)C(=O)N3CCC(C)CC3)ccc2c1 (centres undefined),active: 20.6 µM,–
O=c1[nH]c(CN2CCN(c3ccc([N+](=O)[O-])cc3)CC2)nc2ccsc12,active: 16.4 µM,–
Nc1ccc2nc(-c3cc(Cl)c(N)c(Cl)c3)[nH]c2c1,"inconclusive: 29.1 µM [cytotoxic, single point]",–
COc1ccccc1NC(=O)c1sc2nc(C)c(C(=O)Nc3ccc(C)cc3C)c(-c3ccc(Br)cc3)c2c1N,inactive,–
O=C(COC(=O)c1oc2ccccc2c1CSc1ccc(Cl)cc1)NC1CCCC1,"inconclusive: 29.1 µM [cytotoxic, single point]",–
CCC1(C)CC(C#N)(C#N)C(=O)NC1=O (centres undefined),inactive,–
O=C(COC(=O)c1cccc([N+](=O)[O-])c1)NCc1ccc2c(c1)OCO2,inactive,–
O=C(Cc1c[nH]c2ccccc12)N1CCN(S(=O)(=O)c2cccc(Cl)c2Cl)CC1,"inconclusive: 11.6 µM [cytotoxic, partial curve, poor fit]",–
Cc1ccc(CNC(=O)C(=O)NCC(c2cccnc2)N2CCN(c3ccc(F)cc3)CC2)cc1 (centres undefined),"inconclusive: 18.4 µM [cytotoxic, partial curve]",–
O=C(Nc1ccc2c(c1)OCCO2)C1CCN(S(=O)(=O)c2ccccc2)CC1,inactive,–
COc1ccc([N+](=O)[O-])cc1NC(=O)Nc1cccc(Cl)c1,active: 5.17 µM,–
COc1cc(C2C(C#N)=C(N)Oc3cc(N(C)C)ccc32)cc2c1OCO2 (centres undefined),active: 0.82 µM,–
CN(C)CCNc1ncnc2c1ncn2[C@H]1CN(Cc2cccs2)C[C@@H](CO)O1,"inconclusive: 0.231 µM [rising, full curve]",–
COc1ccc(/C=C(\NC(=O)c2ccc(Cl)cc2)C(=O)NCCCn2ccnc2)cc1OC,"inconclusive: 29.1 µM [rising, single point]",–
CSc1ccc(NC(=O)N2CC=C(n3c(=O)[nH]c4ccccc43)CC2)cc1,active: 16.4 µM,–
Oc1ccc2ccccc2c1/C=N/Nc1nnc(-c2ncc[nH]2)c2ccccc12,"inconclusive: 4.11 µM [cytotoxic, full curve]",–
O=C(NCCN1CCOCC1)C1CCN(S(=O)(=O)N2CCCC2)CC1,"inconclusive: 0.0073 µM [cytotoxic, full curve]",–

# — PubChem BioAssay AID1347075 (National Center for Advancing Translational Sciences (NCATS), 2019)
